Data as given in the supplement of paper PMC10077471.
In all, about 1,900 compounds were measured (“excess over highest single agent (ExcessHSA) synergy score, 6x6 matrix”: median about -83, lowest 2% from about -370 on). Some of the results follow.

What follows are molecules tested on NCI-H446 (assay: excess over highest single agent (ExcessHSA) synergy score, 6x6 matrix; higher = less synergy (more negative = stronger synergy)). Conditions: 72 h; CellTiter-Glo viability.

SMILES	excess over highest single agent
CN1[C@@H]2CC[C@H]1C[C@@H](OC(=O)c1c[nH]c3ccccc13)C2 + Cc1sc2c(c1C)C(c1ccc(Cl)cc1)=N[C@@H](CC(=O)OC(C)(C)C)c1nnc(C)n1-2 [NCGC00250412-19]	-10.6
COc1ccc(-c2c(-c3ccc(O)cc3O)n[nH]c2C)cc1 + Cc1sc2c(c1C)C(c1ccc(Cl)cc1)=N[C@@H](CC(=O)OC(C)(C)C)c1nnc(C)n1-2 [NCGC00250412-19]	40.9
Nc1ccn([C@H]2CC[C@@H](CO)O2)c(=O)n1 + Cc1sc2c(c1C)C(c1ccc(Cl)cc1)=N[C@@H](CC(=O)OC(C)(C)C)c1nnc(C)n1-2 [NCGC00250412-19]	-88.7
CCc1cc(Nc2nccc(-c3c(-c4ccc(OC)c(C(=O)Nc5c(F)cccc5F)c4)nc4ccccn34)n2)c(OC)cc1N1CCC(N2CCN(S(C)(=O)=O)CC2)CC1 + Cc1sc2c(c1C)C(c1ccc(Cl)cc1)=N[C@@H](CC(=O)OC(C)(C)C)c1nnc(C)n1-2 [NCGC00250412-19]	-94.4
CNC(=O)c1cccc(-c2ccc3c(N4CCOC[C@@H]4C)nc(N4CCOC[C@@H]4C)nc3n2)c1 + Cc1sc2c(c1C)C(c1ccc(Cl)cc1)=N[C@@H](CC(=O)OC(C)(C)C)c1nnc(C)n1-2 [NCGC00250412-19]	-175
COc1cccc(-c2cc(=O)c3ccccc3o2)c1N + Cc1sc2c(c1C)C(c1ccc(Cl)cc1)=N[C@@H](CC(=O)OC(C)(C)C)c1nnc(C)n1-2 [NCGC00250412-19]	-128
CO[C@@H]1[C@H](N(C)C(=O)c2ccccc2)C[C@H]2O[C@]1(C)n1c3ccccc3c3c4c(c5c6ccccc6n2c5c31)C(=O)NC4 + Cc1sc2c(c1C)C(c1ccc(Cl)cc1)=N[C@@H](CC(=O)OC(C)(C)C)c1nnc(C)n1-2 [NCGC00250412-19]	-207
CC(C)(C#N)c1cc(Cn2cncn2)cc(C(C)(C)C#N)c1 + Cc1sc2c(c1C)C(c1ccc(Cl)cc1)=N[C@@H](CC(=O)OC(C)(C)C)c1nnc(C)n1-2 [NCGC00250412-19]	-122
COc1cc2nccc(Oc3ccc(NC(=O)Nc4cc(C)on4)c(Cl)c3)c2cc1OC + Cc1sc2c(c1C)C(c1ccc(Cl)cc1)=N[C@@H](CC(=O)OC(C)(C)C)c1nnc(C)n1-2 [NCGC00250412-19]	-229
C[C@@H](O)[C@H]1C(=O)N2C(C(=O)O)=C(S[C@@H]3CN[C@H](CNS(N)(=O)=O)C3)[C@H](C)[C@H]12 + Cc1sc2c(c1C)C(c1ccc(Cl)cc1)=N[C@@H](CC(=O)OC(C)(C)C)c1nnc(C)n1-2 [NCGC00250412-19]	-23.4
O=C(CCc1ccc(O)cc1)c1c(O)cc(O)cc1O + Cc1sc2c(c1C)C(c1ccc(Cl)cc1)=N[C@@H](CC(=O)OC(C)(C)C)c1nnc(C)n1-2 [NCGC00250412-19]	-121
CC[C@@H](C(N)=O)N1CCCC1=O + Cc1sc2c(c1C)C(c1ccc(Cl)cc1)=N[C@@H](CC(=O)OC(C)(C)C)c1nnc(C)n1-2 [NCGC00250412-19]	-95.6
NC(=O)c1cccc2cn(-c3ccc([C@@H]4CCCNC4)cc3)nc12 + Cc1sc2c(c1C)C(c1ccc(Cl)cc1)=N[C@@H](CC(=O)OC(C)(C)C)c1nnc(C)n1-2 [NCGC00250412-19]	-230
O=C(O)CCCc1ccc(N(CCCl)CCCl)cc1 + Cc1sc2c(c1C)C(c1ccc(Cl)cc1)=N[C@@H](CC(=O)OC(C)(C)C)c1nnc(C)n1-2 [NCGC00250412-19]	-72.8
CC(S)C(=O)NCC(=O)O (stereo not drawn) + Cc1sc2c(c1C)C(c1ccc(Cl)cc1)=N[C@@H](CC(=O)OC(C)(C)C)c1nnc(C)n1-2 [NCGC00250412-19]	-113
CN1CCN(CCCN2c3ccccc3Sc3ccc(C(F)(F)F)cc32)CC1 + Cc1sc2c(c1C)C(c1ccc(Cl)cc1)=N[C@@H](CC(=O)OC(C)(C)C)c1nnc(C)n1-2 [NCGC00250412-19]	100
O=C(NCc1ccccc1)c1csc(Nc2ccncn2)n1 + Cc1sc2c(c1C)C(c1ccc(Cl)cc1)=N[C@@H](CC(=O)OC(C)(C)C)c1nnc(C)n1-2 [NCGC00250412-19]	-205
C=CC(=O)Nc1cc2c(Nc3ccc(F)c(Cl)c3)ncnc2cc1OCCCN1CCOCC1 + Cc1sc2c(c1C)C(c1ccc(Cl)cc1)=N[C@@H](CC(=O)OC(C)(C)C)c1nnc(C)n1-2 [NCGC00250412-19]	-120
CNC[C@H](O)c1ccc(O)c(O)c1 + Cc1sc2c(c1C)C(c1ccc(Cl)cc1)=N[C@@H](CC(=O)OC(C)(C)C)c1nnc(C)n1-2 [NCGC00250412-19]	-14.4

SMILES	excess over highest single agent
O=C(O[C@H]1C[C@H]2CC[C@@H](C1)[N+]21CCCC1)C(O)(c1ccccc1)c1ccccc1 + Cc1sc2c(c1C)C(c1ccc(Cl)cc1)=N[C@@H](CC(=O)OC(C)(C)C)c1nnc(C)n1-2 [NCGC00250412-19]	17.8
CNC(=O)c1cc(Oc2ccc(NC(=O)Nc3ccc(Cl)c(C(F)(F)F)c3)c(F)c2)ccn1 + Cc1sc2c(c1C)C(c1ccc(Cl)cc1)=N[C@@H](CC(=O)OC(C)(C)C)c1nnc(C)n1-2 [NCGC00250412-19]	-50.2
O=C(CO)N1CCC(c2n[nH]c(-c3ccc(Cl)cc3)c2-c2ccncn2)CC1 + Cc1sc2c(c1C)C(c1ccc(Cl)cc1)=N[C@@H](CC(=O)OC(C)(C)C)c1nnc(C)n1-2 [NCGC00250412-19]	-161
COC(=O)[C@H](CCCN=C(N)N)NS(=O)(=O)c1ccc(C)cc1 + Cc1sc2c(c1C)C(c1ccc(Cl)cc1)=N[C@@H](CC(=O)OC(C)(C)C)c1nnc(C)n1-2 [NCGC00250412-19]	278
COc1ccc2c(c1OC)C(=O)O[C@@H]2[C@H]1c2c(cc3c(c2OC)OCO3)CCN1C + Cc1sc2c(c1C)C(c1ccc(Cl)cc1)=N[C@@H](CC(=O)OC(C)(C)C)c1nnc(C)n1-2 [NCGC00250412-19]	323
Cc1ccc(C(=O)Nc2cccc(C(F)(F)F)c2)cc1-c1ccc2nc(NCCN3CCOCC3)ncc2c1 + Cc1sc2c(c1C)C(c1ccc(Cl)cc1)=N[C@@H](CC(=O)OC(C)(C)C)c1nnc(C)n1-2 [NCGC00250412-19]	-140
O=C(Nc1ccccc1-c1cn2c(CN3CCNCC3)csc2n1)c1cnc2ccccc2n1 + Cc1sc2c(c1C)C(c1ccc(Cl)cc1)=N[C@@H](CC(=O)OC(C)(C)C)c1nnc(C)n1-2 [NCGC00250412-19]	-244
CN(C)CCN(C)C(=O)c1ccc(NC(=O)Nc2ccc(-c3nc(N4CCOCC4)c4ccn(CC(F)(F)F)c4n3)cc2)cc1 + Cc1sc2c(c1C)C(c1ccc(Cl)cc1)=N[C@@H](CC(=O)OC(C)(C)C)c1nnc(C)n1-2 [NCGC00250412-19]	-272
COc1ccc(C(=O)N2CCCC2=O)cc1 + Cc1sc2c(c1C)C(c1ccc(Cl)cc1)=N[C@@H](CC(=O)OC(C)(C)C)c1nnc(C)n1-2 [NCGC00250412-19]	-35.2
O=C(C1CCCCC1)N1CC(=O)N2CCc3ccccc3C2C1 (stereo not drawn) + Cc1sc2c(c1C)C(c1ccc(Cl)cc1)=N[C@@H](CC(=O)OC(C)(C)C)c1nnc(C)n1-2 [NCGC00250412-19]	-130
C[C@@H]1CCO[C@H]2Cn3cc(C(=O)NCc4ccc(F)cc4F)c(=O)c(O)c3C(=O)N12 + Cc1sc2c(c1C)C(c1ccc(Cl)cc1)=N[C@@H](CC(=O)OC(C)(C)C)c1nnc(C)n1-2 [NCGC00250412-19]	-50.1
C[C@]1(O)C[C@@H](c2nc(-c3ccc4ccc(-c5ccccc5)nc4c3)c3c(N)nccn32)C1 + Cc1sc2c(c1C)C(c1ccc(Cl)cc1)=N[C@@H](CC(=O)OC(C)(C)C)c1nnc(C)n1-2 [NCGC00250412-19]	-125
CC(C)C[C@H](NC(=O)[C@@H](NC(=O)c1cccc(-c2ccccc2)n1)[C@@H](C)O)B(O)O + Cc1sc2c(c1C)C(c1ccc(Cl)cc1)=N[C@@H](CC(=O)OC(C)(C)C)c1nnc(C)n1-2 [NCGC00250412-19]	-166
CNC(=O)c1cc(Oc2ccc(NC(=O)Nc3cc(C(C)(C)C)nn3-c3ccc4ncccc4c3)c(F)c2)ccn1 + Cc1sc2c(c1C)C(c1ccc(Cl)cc1)=N[C@@H](CC(=O)OC(C)(C)C)c1nnc(C)n1-2 [NCGC00250412-19]	-25.3
COc1ccc2c(c1)c(CC(=O)O)c(C)n2C(=O)c1ccc(Cl)cc1 + Cc1sc2c(c1C)C(c1ccc(Cl)cc1)=N[C@@H](CC(=O)OC(C)(C)C)c1nnc(C)n1-2 [NCGC00250412-19]	-100
Nc1nc2ccc(OC(F)(F)F)cc2s1 + Cc1sc2c(c1C)C(c1ccc(Cl)cc1)=N[C@@H](CC(=O)OC(C)(C)C)c1nnc(C)n1-2 [NCGC00250412-19]	-97.3
CCc1cc2c(cc1N1CCC(N3CCOCC3)CC1)C(C)(C)c1[nH]c3cc(C#N)ccc3c1C2=O + Cc1sc2c(c1C)C(c1ccc(Cl)cc1)=N[C@@H](CC(=O)OC(C)(C)C)c1nnc(C)n1-2 [NCGC00250412-19]	-95.1
CCOC(=O)O[C@]1(C(=O)OCCl)CC[C@H]2[C@@H]3CCC4=CC(=O)C=C[C@]4(C)[C@H]3[C@@H](O)C[C@@]21C + Cc1sc2c(c1C)C(c1ccc(Cl)cc1)=N[C@@H](CC(=O)OC(C)(C)C)c1nnc(C)n1-2 [NCGC00250412-19]	-33.5
CCc1c2c(nc3ccc(O)cc13)-c1cc3c(c(=O)n1C2)COC(=O)[C@]3(O)CC + Cc1sc2c(c1C)C(c1ccc(Cl)cc1)=N[C@@H](CC(=O)OC(C)(C)C)c1nnc(C)n1-2 [NCGC00250412-19]	-327

2 records drawn at random from the list so far, as already listed:
SMILES	excess over highest single agent
C[C@@H]1CCO[C@H]2Cn3cc(C(=O)NCc4ccc(F)cc4F)c(=O)c(O)c3C(=O)N12 + Cc1sc2c(c1C)C(c1ccc(Cl)cc1)=N[C@@H](CC(=O)OC(C)(C)C)c1nnc(C)n1-2 [NCGC00250412-19]	-50.1
COc1ccc2c(c1OC)C(=O)O[C@@H]2[C@H]1c2c(cc3c(c2OC)OCO3)CCN1C + Cc1sc2c(c1C)C(c1ccc(Cl)cc1)=N[C@@H](CC(=O)OC(C)(C)C)c1nnc(C)n1-2 [NCGC00250412-19]	323
